Tested on: Candida albicans
Experiment: Antifungal activity against Candida albicans at 10 mg/ml by cup-plate technique
Format: functional, organism-based

NYSTATIN
inhibition zone (IZ): 20 mm

— ChEMBL document CHEMBL3045991, “Synthesis of new 2(1H)-quinoxalinone derivatives for antimicrobial and antiinflammatory evaluation” (Med Chem Res, 2009)
